This assay concerns the target Pablo (pro-apoptotic Bcl-XL binding protein) (human) (UniProt Q92558). The experiment in a line: yeast two-hybrid assay.

Protein sequences, listed by entry. Tags and fused reporters are not part of them. Lines headed by an entry give the natural chain unless they say otherwise; changes in a name come on top.
UniProt Q92558: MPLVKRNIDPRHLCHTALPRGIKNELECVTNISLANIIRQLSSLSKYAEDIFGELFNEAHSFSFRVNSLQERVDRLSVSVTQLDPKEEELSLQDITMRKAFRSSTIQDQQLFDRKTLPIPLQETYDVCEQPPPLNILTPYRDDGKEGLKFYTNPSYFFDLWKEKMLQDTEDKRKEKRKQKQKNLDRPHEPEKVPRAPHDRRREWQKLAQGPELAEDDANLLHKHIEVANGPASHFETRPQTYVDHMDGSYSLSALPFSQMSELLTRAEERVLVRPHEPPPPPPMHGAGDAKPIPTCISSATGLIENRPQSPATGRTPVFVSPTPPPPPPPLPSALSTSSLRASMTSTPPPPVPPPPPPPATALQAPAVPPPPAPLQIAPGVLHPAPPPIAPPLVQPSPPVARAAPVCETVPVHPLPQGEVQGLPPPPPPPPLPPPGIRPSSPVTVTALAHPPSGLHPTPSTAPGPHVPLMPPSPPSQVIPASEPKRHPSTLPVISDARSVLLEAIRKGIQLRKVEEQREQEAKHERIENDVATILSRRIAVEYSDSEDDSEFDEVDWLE

Results are given in words; binding and its absence hold for the method and conditions named. Some binding calls cover weakened binding; strength is not graded here.

B1: pancortin 2 (protein)
chain: MITNWMSQTLPSLVGLNTTKLSAAGGGTLDRSTGVLPTNPEESWQVYSSAQDSEGRCICTVVAPQQTMCSRDARTKQLRQLLEKVQNMSQSIEVLDRRTQRDLQYVEKMENQMKGLESKFKQVEESHKQHLARQFKG
Regarding B1, the binding entry was “binds”.

These data come from patent publication US20030215852A1.
